Assay results as given in patent US20230042936A1, “PYRIDO[2,3-d]PYRIMIDIN-7(8H)-ONES AS CDK INHIBITORS” (PROSENESTAR LLC, priority 2020, published 2023).
For at least one compound, name, drawing or mass did not settle the structure.

Test system: MDA-MB-231-derived xenografts
Experiment: Tumor xenografts
Assay type: in vivo, Athymic nude mice
Conditions: 100 mg/Kg oral gavage 5 days/week, 12 days; FIG. 9B
Description: For histological analysis, mice tissues and human xenografts were fixed in 10%-buffered formalin (Sigma) and embedded in paraffin wax. Sections of 3- or 5-μm thickness were stained with haematoxylin and eosin. Additional immunohistochemical examination was performed using a specific antibody against phospho-Rb (Ser807/811; Cell Signaling) or Ki67 (DAKO).
DMSO, PS004, PS006 and PS009 were diluted in sesame oil and administered intraperitoneally twice per week during two weeks at 100 mg/Kg. […] Tumor growth was monitored using caliper measurements and tumor size was estimated using the following formula: Tumor volume (mm^3)=d^2·D/2 where d and D, are the shortest and longest diameter in mm, respectively. After completing the treatment, mice were sacrificed and tumors were extracted, weighed, and fixed for histological analysis.
The therapeutic effect of the subject compounds was then tested by treating mice previously injected subcutaneously with MDA-MB-231 breast cancer cells. […] The dose amount of 100 mg/kg dosage in these cases was administered at a frequency of two injections per week for the total of two weeks of treatment.

## CC(=O)c1c(C)c2cnc(Nc3ccc(N4CCNCC4)cn3)nc2n(C2CCCC2)c1=O [Palbociclib, reference compound]
  Ki67 levels in the xenografts: slightly diminished
